Data taken from US10016382B2, “Method for decreasing skeletal muscle damage and/or oxidative stress in mammals” (LONZA INC., priority 2014, dated 2018).

Tests used:
[1] = Body weights during 13 wk study, Example 1; type: in vivo, dog; settings: Ex.1, 250 mg/d, mean ± SEM
Protocol: Experimental Design: Forty Labrador Retrievers (labs) ranging in age from 1 to 3.5 years were incorporated into a two dietary treatment study. The two dietary treatments were based on feeding the test dogs the same low L-carnitine diet but adding 250 mg per day of L-carnitine to the L-carnitine group. Each of the L-carnitine dogs received the daily 250 mg of L-carnitine mixed with an additional 3.75 g sugar. The control dogs received 4 g of sugar each day. Twenty labs of equal gender, age, excitement level, frame size, body weight and genetic background were utilized for each of the two treatments. The labs utilized for the nutrition study were from a minimum of 6 different bitches. The lean body mass of the 40 test dogs was determined by scanning with the DEXA and the final key component utilized to assure equal groups. Prior to the start of the study, the labs were acclimated to the experimental diets for a minimum of 10 days. The labs were weighed at the beginning of the 90 day study and weighed every two weeks throughout the study. Feed consumption was determined daily by weighing feed provided and feed refusals. The quantity of food provided each dog on a daily basis was adjusted based on maintaining a minimum initial starting body weight throughout the study. The dog food was provided by Lonza Inc. and was equal to the minimum guaranteed analysis of Gold N Pro (MFA of Missouri) that the performance dogs had been consuming prior to the start of the study (Table 1).

[2] = Weekly body weight, Example 2 part one; type: in vivo, dog
Protocol: The performance dogs were weighed at the beginning of the study and at one week intervals until the end of part one. Feed consumption and refusals were determined daily by weighing and recording the amount offered or refused. The quantity of food provided to each dog on a daily basis was adjusted based on the goal of maintaining the dog's minimum body weight throughout the study.

Question: Which Body weight ([1]; Week 1, both sexes) does the source give for `C[N+](C)(C)C[C@H](O)CC(=O)[O-]` [L-carnitine] here?
Answer: The Body weight was 61 ± 1.9 n = 20 lb.

Question: What about the Body weight ([1]; Week 1, females) of the same molecule?
Answer: Its Body weight is 55 ± 1.2 n = 9 lb.

Question: What about the Body weight ([1]; Week 1, males) of the same molecule?
Answer: Its Body weight is 65.9 ± 2.5 n = 11 lb.

Question: And the Body weight ([1]; Week 3, both sexes)?
Answer: The Body weight was 63.4 ± 1.9 n = 20 lb.

Question: And the Body weight ([1]; Week 3, females)?
Answer: The Body weight was 58.1 ± 1.2 n = 9 lb.

Question: And the Body weight ([1]; Week 3, males)?
Answer: The Body weight was 67.8 ± 2.8 n = 11 lb.

Question: And the Body weight ([1]; Week 5, both sexes)?
Answer: Its Body weight is 62.8 ± 2 n = 20 lb.

Question: What about the Body weight ([1]; Week 5, females) of the same molecule?
Answer: Its Body weight is 58.3 ± 1.2 n = 9 lb.

Question: And the Body weight ([1]; Week 5, males)?
Answer: The Body weight was 66.6 ± 3 n = 11 lb.

Question: And the Body weight ([1]; Week 7, both sexes)?
Answer: Its Body weight is 63 ± 1.8 n = 20 lb.

Question: And the Body weight ([1]; Week 7, females)?
Answer: Its Body weight is 59 ± 1.4 n = 9 lb.

Question: What about the Body weight ([1]; Week 7, males) of the same molecule?
Answer: The Body weight was 66.3 ± 2.7 n = 11 lb.

Question: What about the Body weight ([1]; Week 9, both sexes) of the same molecule?
Answer: The Body weight was 62.8 ± 1.9 n = 20 lb.

Question: And the Body weight ([1]; Week 9, females)?
Answer: Its Body weight is 58.2 ± 1.7 n = 9 lb.

Question: What about the Body weight ([1]; Week 9, males) of the same molecule?
Answer: Its Body weight is 66.5 ± 2.9 n = 11 lb.

Question: What about the Body weight ([1]; Week 11, both sexes) of the same molecule?
Answer: Its Body weight is 64.4 ± 2 n = 20 lb.

Question: And the Body weight ([1]; Week 11, females)?
Answer: The Body weight was 59 ± 1.5 n = 9 lb.

Question: What about the Body weight ([1]; Week 11, males) of the same molecule?
Answer: The Body weight was 68.8 ± 2.8 n = 11 lb.

Question: What about the Body weight ([1]; Week 13, both sexes) of the same molecule?
Answer: The Body weight was 64.9 ± 2 n = 20 lb.

Question: And the Body weight ([1]; Week 13, females)?
Answer: Its Body weight is 59.6 ± 1.5 n = 9 lb.

Question: What about the Body weight ([1]; Week 13, males) of the same molecule?
Answer: The Body weight was 69.3 ± 2.8 n = 11 lb.

Question: What about the “Weekly Body Weight” value ([2]; Week 1, all dogs) of the same molecule?
Answer: Its value is 29.57 ± 0.96 kg.

Question: And the “Weekly Body Weight by Gender” value ([2]; Week 1 Female)?
Answer: The value was 25.72 ± 0.93 kg.

Question: And the “Weekly Body Weight by Gender” value ([2]; Week 1 Male)?
Answer: Its value is 33.41 ± 0.82 kg.

Question: What about the “Weekly Body Weight” value ([2]; Week 2, all dogs) of the same molecule?
Answer: Its value is 28.68 ± 0.88 kg.

Question: And the “Weekly Body Weight by Gender” value ([2]; Week 2 Female)?
Answer: The value was 25.26 ± 0.88 kg.

Question: What about the “Weekly Body Weight by Gender” value ([2]; Week 2 Male) of the same molecule?
Answer: Its value is 32.11 ± 0.81 kg.

Question: What about the “Weekly Body Weight” value ([2]; Week 3, all dogs) of the same molecule?
Answer: Its value is 29.21 ± 0.89 kg.

Question: What about the “Weekly Body Weight by Gender” value ([2]; Week 3 Female) of the same molecule?
Answer: Its value is 26.04 ± 0.98 kg.

Question: And the “Weekly Body Weight by Gender” value ([2]; Week 3 Male)?
Answer: Its value is 32.39 ± 0.9 kg.

Question: And the “Weekly Body Weight” value ([2]; Week 4, all dogs)?
Answer: The value was 29.21 ± 0.89 kg.

Question: What about the “Weekly Body Weight by Gender” value ([2]; Week 4 Female) of the same molecule?
Answer: Its value is 26.04 ± 0.98 kg.

Question: What about the “Weekly Body Weight by Gender” value ([2]; Week 4 Male) of the same molecule?
Answer: The value was 32.39 ± 0.9 kg.

Question: And the “Weekly Body Weight” value ([2]; Week 5, all dogs)?
Answer: The value was 29.36 ± 0.9 kg.

Question: And the “Weekly Body Weight by Gender” value ([2]; Week 5 Female)?
Answer: The value was 26.03 ± 0.98 kg.

Question: What about the “Weekly Body Weight by Gender” value ([2]; Week 5 Male) of the same molecule?
Answer: Its value is 32.69 ± 0.86 kg.

Question: What about the “Weekly Body Weight” value ([2]; Week 6, all dogs) of the same molecule?
Answer: Its value is 29.47 ± 0.89 kg.

Question: And the “Weekly Body Weight by Gender” value ([2]; Week 6 Female)?
Answer: The value was 26.25 ± 1 kg.

Question: What about the “Weekly Body Weight by Gender” value ([2]; Week 6 Male) of the same molecule?
Answer: Its value is 32.69 ± 0.84 kg.

Question: And the “Weekly Body Weight” value ([2]; Week 7, all dogs)?
Answer: The value was 29.57 ± 0.89 kg.

Question: And the “Weekly Body Weight by Gender” value ([2]; Week 7 Female)?
Answer: The value was 26.27 ± 0.94 kg.

Question: What about the “Weekly Body Weight by Gender” value ([2]; Week 7 Male) of the same molecule?
Answer: Its value is 32.86 ± 0.87 kg.

Question: And the “Weekly Body Weight” value ([2]; Week 8, all dogs)?
Answer: The value was 29.63 ± 0.9 kg.

Question: And the “Weekly Body Weight by Gender” value ([2]; Week 8 Female)?
Answer: Its value is 26.37 ± 1.01 kg.

Question: What about the “Weekly Body Weight by Gender” value ([2]; Week 8 Male) of the same molecule?
Answer: The value was 32.89 ± 0.86 kg.

Question: And the “Weekly Body Weight” value ([2]; Week 9, all dogs)?
Answer: The value was 29.63 ± 0.9 kg.

Question: And the “Weekly Body Weight by Gender” value ([2]; Week 9 Female)?
Answer: The value was 26.37 ± 1.01 kg.

Question: And the “Weekly Body Weight by Gender” value ([2]; Week 9 Male)?
Answer: The value was 32.89 ± 0.86 kg.

Question: And the “Weekly Body Weight” value ([2]; Week 10, all dogs)?
Answer: Its value is 29.59 ± 0.9 kg.

Question: And the “Weekly Body Weight by Gender” value ([2]; Week 10 Female)?
Answer: Its value is 26.28 ± 0.99 kg.

Question: And the “Weekly Body Weight by Gender” value ([2]; Week 10 Male)?
Answer: Its value is 32.9 ± 0.83 kg.

Question: What about the “Weekly Body Weight” value ([2]; Week 11, all dogs) of the same molecule?
Answer: The value was 29.65 ± 0.9 kg.

Question: And the “Weekly Body Weight by Gender” value ([2]; Week 11 Female)?
Answer: The value was 26.32 ± 0.98 kg.

Question: And the “Weekly Body Weight by Gender” value ([2]; Week 11 Male)?
Answer: The value was 32.99 ± 0.84 kg.

Question: And the “Weekly Body Weight” value ([2]; Week 12, all dogs)?
Answer: Its value is 29.74 ± 0.93 kg.

Question: What about the “Weekly Body Weight by Gender” value ([2]; Week 12 Female) of the same molecule?
Answer: Its value is 26.26 ± 1.02 kg.

Question: What about the “Weekly Body Weight by Gender” value ([2]; Week 12 Male) of the same molecule?
Answer: Its value is 33.22 ± 0.81 kg.

Question: What about the “Weekly Body Weight” value ([2]; Week 13, all dogs) of the same molecule?
Answer: The value was 29.76 ± 0.91 kg.

Question: And the “Weekly Body Weight by Gender” value ([2]; Week 13 Female)?
Answer: The value was 26.31 ± 0.99 kg.

Question: What about the “Weekly Body Weight by Gender” value ([2]; Week 13 Male) of the same molecule?
Answer: Its value is 33.21 ± 0.8 kg.

Question: And the “Weekly Body Weight” value ([2]; Week 14, all dogs)?
Answer: Its value is 29.68 ± 0.9 kg.

Question: And the “Weekly Body Weight by Gender” value ([2]; Week 14 Female)?
Answer: The value was 26.23 ± 0.95 kg.

Question: What about the “Weekly Body Weight by Gender” value ([2]; Week 14 Male) of the same molecule?
Answer: The value was 33.13 ± 0.81 kg.
